Laboratory results reported in the supplement of paper PMC7877785.
± gives the uncertainty stated by the source. Many of these values have a large error.

Assay: self-splicing fitness, log relative to wild type (ln ratio); higher = more splicing; Tetrahymena group I intron in knt gene, E. coli kanamycin selection, DiMSum; sequences stand for … in CUCUCU…GGAGGGAAAAGUUAUCAGGCAUGCACCUGGUAGCUAGUCUUUAAACCAAUAGAUUGCAUCGGUUUAAAAGGCAAGACCGUCAAAUUGCGGGAAAGGGGUCAACAGCCGUUCAGUACCAAGUCUCAGGGGAAACUUUGAGAUGGCCUUGCAAAGGGUAUGGUAAUAAGCUGACGGACAUGGUCCUAACCACGCAGCCAAGUCCUAAGUCAACAGAUCUUCUGUUGAUAUGGAUGCAGUUCACAGACUAAAUGUCGGUCGGGGAAGAUGUAUUCUUCUCAUAAGAUAUAGUCGGACCUCUCCUUAAUGGGAGCUAGCGGAUGAAGUGAUGCAACACUGGAGCCGCUGGGAACUAAUUUGUAUGCGAAAGUAUAUUGAUUAGUUUUGGAGUACUCGUGGUCG
Summary of the method: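 The eight P1ex-region nucleotides of an intron in the knt kanamycin-resistance gene on pET-22b(+) were all randomised and the library put into E. coli BL21(DE3). Six replicate transformations were grown overnight at 37°C or 30°C on LB agar with or without 25 μg/mL kanamycin, together with 100 μg/mL carbenicillin, 50 μM IPTG and 0.2% rhamnose. Colonies were pooled and amplicon-sequenced on an Illumina HiSeq 2500. Fitness from DiMSum is the error-weighted combination of wild-type-normalised replicate fold changes, kanamycin over none.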

Sequence	self-splicing fitness (ln) (37 °C)	self-splicing fitness (ln) (30 °C)
UGGGAGCAAUAUUACGUUAC	-2.74 ± 0.55	–
CGCGAGCAAUAUUACGCCUA	–	-1.16 ± 0.56
CUGGAGCAAUAUUACGAGGA	-3.06 ± 0.52	–
AGGAAGCAAUAUUACGAUAC	-2.02 ± 0.2	-3.27 ± 0.26
CCGCAGCAAUAUUACGCCCA	–	-1.73 ± 0.65
CCCUAGCAAUAUUACGUCCC	–	-2.51 ± 0.66
UCAGAGCAAUAUUACGGAUC	–	-3.79 ± 0.73
CGAGAGCAAUAUUACGAACC	–	-2.09 ± 1.4
CUCGAGCAAUAUUACGCUCA	-2.15 ± 0.45	-1.96 ± 0.27
UUUGAGCAAUAUUACGCAGA	–	-2.9 ± 0.54
CCGGAGCAAUAUUACGAAUU	–	-4.46 ± 0.51
GGGAAGCAAUAUUACGGAGA	–	-2.62 ± 0.76
UAAUAGCAAUAUUACGCAUC	-1.17 ± 0.76	–
CGUCAGCAAUAUUACGAGCC	-1.77 ± 0.53	–
AGCGAGCAAUAUUACGAAAA	–	-0.721 ± 0.78
CACGAGCAAUAUUACGAAGC	–	-2.56 ± 0.58
AUCUAGCAAUAUUACGCGCG	-0.257 ± 0.12	-0.762 ± 0.095
GAAGAGCAAUAUUACGCUAA	–	-4.73 ± 1
UGGGAGCAAUAUUACGCCUG	-1.66 ± 0.68	–
CAUAAGCAAUAUUACGGUGG	-0.683 ± 0.088	-1.24 ± 0.075
UGAAAGCAAUAUUACGCUGC	-2.92 ± 0.75	-3.52 ± 0.52
GGAAAGCAAUAUUACGUCUC	-2.29 ± 0.79	–
CGAUAGCAAUAUUACGCAUA	-1.8 ± 0.24	-3.25 ± 0.28

Sequence	self-splicing fitness (ln) (37 °C)	self-splicing fitness (ln) (30 °C)
CGCAAGCAAUAUUACGCAGC	–	-5.08 ± 0.72
CCAAAGCAAUAUUACGUAUC	-2.76 ± 0.24	-1.28 ± 0.11
UUUUAGCAAUAUUACGACCU	–	-3.09 ± 0.63
AGUGAGCAAUAUUACGCGCU	–	-2.5 ± 0.69
GGUUAGCAAUAUUACGUACC	–	-2.09 ± 1.4
ACGAAGCAAUAUUACGCAUA	-0.782 ± 0.072	-1.44 ± 0.08
UGUAAGCAAUAUUACGGCCC	0.868 ± 0.58	–
UUGAAGCAAUAUUACGGUGC	-2.93 ± 0.53	-1.96 ± 0.58
AGUCAGCAAUAUUACGAUAU	0.475 ± 0.11	-0.289 ± 0.096
GCACAGCAAUAUUACGAAUC	-0.69 ± 0.079	-1.15 ± 0.076
ACAAAGCAAUAUUACGAGCC	–	-4.62 ± 0.72
GCGGAGCAAUAUUACGCCGC	-0.693 ± 1.4	–
UUUGAGCAAUAUUACGUACU	-1.95 ± 0.59	–
UCUUAGCAAUAUUACGAAUU	–	-3.75 ± 1
AAUGAGCAAUAUUACGCAGU	-3.29 ± 0.31	-2.51 ± 0.2
UUCUAGCAAUAUUACGUUGG	-2.94 ± 0.61	–
UCUAAGCAAUAUUACGAGCU	-3.25 ± 0.52	-4.69 ± 0.51
CCCCAGCAAUAUUACGCGGA	-2.07 ± 0.12	-3.34 ± 0.15
CUUAAGCAAUAUUACGCUGC	–	-4.13 ± 0.61
GGGUAGCAAUAUUACGAGCC	-0.693 ± 1.4	-3.48 ± 1.1
GCAAAGCAAUAUUACGAAGA	-2.45 ± 0.23	-1.88 ± 0.18
UGUAAGCAAUAUUACGCAAG	-2.66 ± 0.44	-2.85 ± 0.39
GCAGAGCAAUAUUACGGUAU	-4.44 ± 0.51	–

Looked up one by one from above, 4 records:
Sequence	self-splicing fitness (ln) (37 °C)	self-splicing fitness (ln) (30 °C)
AUCUAGCAAUAUUACGCGCG	-0.257 ± 0.12	-0.762 ± 0.095
AGUGAGCAAUAUUACGCGCU	–	-2.5 ± 0.69
CCGGAGCAAUAUUACGAAUU	–	-4.46 ± 0.51
CGCAAGCAAUAUUACGCAGC	–	-5.08 ± 0.72
